Data from the supplement of paper PMC12067093, “Discovery and optimisation of a covalent ligand for TRIM25 and its application to targeted protein ubiquitination” (Chemical Science, 2025).
Some of the results follow.

Chains of the proteins cited; added tags and fusions are not shown. Lines headed by an entry give the natural chain unless they say otherwise; changes in a name come on top.
UniProt P49327, whole entry, looked up: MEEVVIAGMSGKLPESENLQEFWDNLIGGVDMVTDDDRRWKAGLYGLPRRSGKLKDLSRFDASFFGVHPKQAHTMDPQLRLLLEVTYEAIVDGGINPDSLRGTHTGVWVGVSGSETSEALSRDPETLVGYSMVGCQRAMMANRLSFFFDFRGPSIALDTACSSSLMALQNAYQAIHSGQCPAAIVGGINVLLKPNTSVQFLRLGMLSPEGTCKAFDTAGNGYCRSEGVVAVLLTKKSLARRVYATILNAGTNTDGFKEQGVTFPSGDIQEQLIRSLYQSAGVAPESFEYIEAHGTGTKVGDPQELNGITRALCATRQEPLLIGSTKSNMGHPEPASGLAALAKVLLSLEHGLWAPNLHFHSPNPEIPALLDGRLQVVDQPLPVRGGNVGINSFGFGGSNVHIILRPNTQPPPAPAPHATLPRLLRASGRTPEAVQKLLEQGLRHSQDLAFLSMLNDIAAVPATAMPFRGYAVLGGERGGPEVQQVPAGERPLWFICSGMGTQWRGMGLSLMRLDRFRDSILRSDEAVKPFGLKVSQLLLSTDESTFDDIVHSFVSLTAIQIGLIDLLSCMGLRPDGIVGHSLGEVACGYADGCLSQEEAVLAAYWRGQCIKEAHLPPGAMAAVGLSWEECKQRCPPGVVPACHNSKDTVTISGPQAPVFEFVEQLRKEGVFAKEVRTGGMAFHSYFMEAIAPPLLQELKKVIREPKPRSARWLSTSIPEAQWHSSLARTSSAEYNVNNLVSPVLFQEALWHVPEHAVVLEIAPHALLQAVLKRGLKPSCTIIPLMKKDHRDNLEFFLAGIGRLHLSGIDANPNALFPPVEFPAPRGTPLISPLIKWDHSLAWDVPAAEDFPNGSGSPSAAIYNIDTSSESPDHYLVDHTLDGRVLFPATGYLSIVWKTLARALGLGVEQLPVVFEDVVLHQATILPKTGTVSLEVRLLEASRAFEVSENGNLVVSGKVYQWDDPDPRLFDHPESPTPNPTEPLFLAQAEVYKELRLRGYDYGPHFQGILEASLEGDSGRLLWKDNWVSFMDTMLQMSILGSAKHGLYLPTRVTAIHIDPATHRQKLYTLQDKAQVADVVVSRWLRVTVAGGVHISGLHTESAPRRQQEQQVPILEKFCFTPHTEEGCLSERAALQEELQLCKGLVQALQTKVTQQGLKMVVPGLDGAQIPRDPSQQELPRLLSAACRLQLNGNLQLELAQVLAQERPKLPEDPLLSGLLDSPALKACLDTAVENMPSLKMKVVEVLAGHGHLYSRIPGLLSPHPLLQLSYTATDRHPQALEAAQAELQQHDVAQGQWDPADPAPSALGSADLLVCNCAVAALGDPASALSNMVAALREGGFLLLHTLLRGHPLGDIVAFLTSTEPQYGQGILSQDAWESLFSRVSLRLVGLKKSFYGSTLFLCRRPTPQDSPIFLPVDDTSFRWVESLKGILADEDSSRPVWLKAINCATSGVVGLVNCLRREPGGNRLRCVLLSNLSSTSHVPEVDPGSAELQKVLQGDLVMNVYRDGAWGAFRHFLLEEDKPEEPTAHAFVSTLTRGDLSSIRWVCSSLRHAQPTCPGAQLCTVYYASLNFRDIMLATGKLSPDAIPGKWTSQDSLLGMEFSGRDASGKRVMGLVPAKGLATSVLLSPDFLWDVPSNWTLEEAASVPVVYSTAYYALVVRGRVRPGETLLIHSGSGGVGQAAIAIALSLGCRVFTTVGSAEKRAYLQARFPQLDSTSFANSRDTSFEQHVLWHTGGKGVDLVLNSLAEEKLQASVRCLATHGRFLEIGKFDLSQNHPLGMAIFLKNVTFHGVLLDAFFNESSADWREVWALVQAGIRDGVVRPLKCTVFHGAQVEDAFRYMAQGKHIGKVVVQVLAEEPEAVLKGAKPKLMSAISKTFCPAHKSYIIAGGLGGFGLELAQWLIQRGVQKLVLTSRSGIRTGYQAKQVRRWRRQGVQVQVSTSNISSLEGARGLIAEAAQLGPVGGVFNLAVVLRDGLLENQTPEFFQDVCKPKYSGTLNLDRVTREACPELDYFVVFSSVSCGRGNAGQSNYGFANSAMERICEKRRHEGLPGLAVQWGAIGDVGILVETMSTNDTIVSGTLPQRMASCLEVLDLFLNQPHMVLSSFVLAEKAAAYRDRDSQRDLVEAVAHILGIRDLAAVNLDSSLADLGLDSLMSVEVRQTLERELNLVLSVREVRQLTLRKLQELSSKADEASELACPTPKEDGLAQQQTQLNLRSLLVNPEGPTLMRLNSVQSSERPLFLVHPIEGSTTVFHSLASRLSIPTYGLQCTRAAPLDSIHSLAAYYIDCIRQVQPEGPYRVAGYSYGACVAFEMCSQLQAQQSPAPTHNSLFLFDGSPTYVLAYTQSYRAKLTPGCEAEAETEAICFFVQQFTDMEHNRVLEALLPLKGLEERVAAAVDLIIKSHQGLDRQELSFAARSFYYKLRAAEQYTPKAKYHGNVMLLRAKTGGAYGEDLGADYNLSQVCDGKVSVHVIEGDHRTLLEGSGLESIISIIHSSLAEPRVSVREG
UniProt P22830: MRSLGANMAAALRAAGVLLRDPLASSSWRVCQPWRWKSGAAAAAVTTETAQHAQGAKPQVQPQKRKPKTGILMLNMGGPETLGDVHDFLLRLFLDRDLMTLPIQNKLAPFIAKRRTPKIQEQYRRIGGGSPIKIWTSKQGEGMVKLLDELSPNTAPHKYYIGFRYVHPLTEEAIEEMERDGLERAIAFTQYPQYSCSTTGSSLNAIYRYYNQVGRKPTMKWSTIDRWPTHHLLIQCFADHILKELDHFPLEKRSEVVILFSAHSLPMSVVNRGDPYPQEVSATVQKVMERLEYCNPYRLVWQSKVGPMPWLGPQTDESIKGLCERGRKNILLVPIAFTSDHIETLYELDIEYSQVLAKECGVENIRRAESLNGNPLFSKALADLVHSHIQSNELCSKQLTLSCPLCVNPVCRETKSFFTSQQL
UniProt Q6PCT2: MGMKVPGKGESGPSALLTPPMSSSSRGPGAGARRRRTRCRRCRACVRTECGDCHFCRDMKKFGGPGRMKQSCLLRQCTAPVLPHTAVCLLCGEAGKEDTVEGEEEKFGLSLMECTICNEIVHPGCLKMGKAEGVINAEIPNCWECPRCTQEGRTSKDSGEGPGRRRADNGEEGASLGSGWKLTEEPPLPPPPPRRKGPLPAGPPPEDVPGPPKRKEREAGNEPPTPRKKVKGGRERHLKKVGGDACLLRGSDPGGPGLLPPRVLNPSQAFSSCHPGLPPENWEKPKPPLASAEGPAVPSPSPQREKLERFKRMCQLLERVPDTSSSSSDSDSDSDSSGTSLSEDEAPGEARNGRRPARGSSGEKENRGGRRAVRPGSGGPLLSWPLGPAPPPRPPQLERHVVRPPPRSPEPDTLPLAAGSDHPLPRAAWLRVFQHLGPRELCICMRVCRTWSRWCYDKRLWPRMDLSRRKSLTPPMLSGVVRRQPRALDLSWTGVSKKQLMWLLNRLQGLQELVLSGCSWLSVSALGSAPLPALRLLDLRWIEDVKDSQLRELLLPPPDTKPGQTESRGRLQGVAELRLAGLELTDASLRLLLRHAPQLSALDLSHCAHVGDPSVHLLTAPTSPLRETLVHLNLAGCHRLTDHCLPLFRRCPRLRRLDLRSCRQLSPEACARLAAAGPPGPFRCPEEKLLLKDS
UniProt Q53R41: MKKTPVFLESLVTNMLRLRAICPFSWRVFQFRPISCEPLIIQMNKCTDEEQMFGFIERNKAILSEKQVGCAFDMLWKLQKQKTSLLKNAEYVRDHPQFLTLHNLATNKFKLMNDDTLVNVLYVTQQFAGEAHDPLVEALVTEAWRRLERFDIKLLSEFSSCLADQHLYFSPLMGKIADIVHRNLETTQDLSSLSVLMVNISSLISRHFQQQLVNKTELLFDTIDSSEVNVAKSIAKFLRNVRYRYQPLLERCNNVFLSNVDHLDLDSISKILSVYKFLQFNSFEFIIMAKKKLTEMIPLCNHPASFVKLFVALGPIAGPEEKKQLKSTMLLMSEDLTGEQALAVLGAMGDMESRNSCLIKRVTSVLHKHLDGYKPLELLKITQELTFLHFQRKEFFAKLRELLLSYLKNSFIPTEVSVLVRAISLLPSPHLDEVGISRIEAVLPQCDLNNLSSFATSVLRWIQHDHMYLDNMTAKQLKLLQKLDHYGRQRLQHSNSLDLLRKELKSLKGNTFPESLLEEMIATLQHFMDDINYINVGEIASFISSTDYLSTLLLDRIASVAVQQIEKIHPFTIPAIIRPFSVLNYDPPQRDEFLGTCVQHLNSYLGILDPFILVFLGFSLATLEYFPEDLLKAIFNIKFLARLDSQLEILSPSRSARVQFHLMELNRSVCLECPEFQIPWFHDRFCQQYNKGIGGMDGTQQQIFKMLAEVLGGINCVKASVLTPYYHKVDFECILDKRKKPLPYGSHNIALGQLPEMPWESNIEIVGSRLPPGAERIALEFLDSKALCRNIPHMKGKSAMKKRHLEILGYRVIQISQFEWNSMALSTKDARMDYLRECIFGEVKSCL
UniProt Q13642: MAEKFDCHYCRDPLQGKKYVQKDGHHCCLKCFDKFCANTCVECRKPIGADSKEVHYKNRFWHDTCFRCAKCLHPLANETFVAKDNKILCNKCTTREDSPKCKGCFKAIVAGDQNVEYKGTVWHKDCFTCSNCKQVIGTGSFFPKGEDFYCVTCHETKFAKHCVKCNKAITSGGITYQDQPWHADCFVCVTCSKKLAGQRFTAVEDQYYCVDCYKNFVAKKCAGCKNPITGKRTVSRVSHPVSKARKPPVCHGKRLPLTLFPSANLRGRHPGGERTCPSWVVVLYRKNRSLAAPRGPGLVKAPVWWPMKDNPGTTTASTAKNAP
UniProt P12318: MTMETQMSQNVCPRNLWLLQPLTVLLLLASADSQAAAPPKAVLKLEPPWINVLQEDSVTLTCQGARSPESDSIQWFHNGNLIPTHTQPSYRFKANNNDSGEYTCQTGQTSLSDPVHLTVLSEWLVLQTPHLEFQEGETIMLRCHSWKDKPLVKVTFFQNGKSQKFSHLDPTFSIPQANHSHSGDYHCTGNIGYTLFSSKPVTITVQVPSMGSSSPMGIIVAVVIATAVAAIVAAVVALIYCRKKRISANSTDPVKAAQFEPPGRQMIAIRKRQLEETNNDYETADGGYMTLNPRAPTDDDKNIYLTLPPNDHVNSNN
UniProt Q96ME1: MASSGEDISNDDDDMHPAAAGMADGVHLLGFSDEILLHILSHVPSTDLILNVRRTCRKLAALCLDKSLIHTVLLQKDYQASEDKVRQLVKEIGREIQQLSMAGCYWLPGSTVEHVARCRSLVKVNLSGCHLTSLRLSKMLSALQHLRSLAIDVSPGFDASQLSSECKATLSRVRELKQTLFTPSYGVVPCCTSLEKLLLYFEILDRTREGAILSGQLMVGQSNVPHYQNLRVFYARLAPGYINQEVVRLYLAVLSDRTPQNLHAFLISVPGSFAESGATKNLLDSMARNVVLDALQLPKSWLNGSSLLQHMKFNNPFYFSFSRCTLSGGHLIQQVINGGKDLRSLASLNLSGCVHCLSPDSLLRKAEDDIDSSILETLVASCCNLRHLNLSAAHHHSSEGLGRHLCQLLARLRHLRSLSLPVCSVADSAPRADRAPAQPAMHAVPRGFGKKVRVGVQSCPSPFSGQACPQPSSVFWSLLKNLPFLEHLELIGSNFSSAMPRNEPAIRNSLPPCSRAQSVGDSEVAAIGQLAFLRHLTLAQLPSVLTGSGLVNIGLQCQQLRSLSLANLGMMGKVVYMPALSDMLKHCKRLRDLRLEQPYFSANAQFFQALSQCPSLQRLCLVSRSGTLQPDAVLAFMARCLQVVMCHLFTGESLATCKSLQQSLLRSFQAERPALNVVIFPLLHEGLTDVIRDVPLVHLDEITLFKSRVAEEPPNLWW
UniProt Q9NYY8: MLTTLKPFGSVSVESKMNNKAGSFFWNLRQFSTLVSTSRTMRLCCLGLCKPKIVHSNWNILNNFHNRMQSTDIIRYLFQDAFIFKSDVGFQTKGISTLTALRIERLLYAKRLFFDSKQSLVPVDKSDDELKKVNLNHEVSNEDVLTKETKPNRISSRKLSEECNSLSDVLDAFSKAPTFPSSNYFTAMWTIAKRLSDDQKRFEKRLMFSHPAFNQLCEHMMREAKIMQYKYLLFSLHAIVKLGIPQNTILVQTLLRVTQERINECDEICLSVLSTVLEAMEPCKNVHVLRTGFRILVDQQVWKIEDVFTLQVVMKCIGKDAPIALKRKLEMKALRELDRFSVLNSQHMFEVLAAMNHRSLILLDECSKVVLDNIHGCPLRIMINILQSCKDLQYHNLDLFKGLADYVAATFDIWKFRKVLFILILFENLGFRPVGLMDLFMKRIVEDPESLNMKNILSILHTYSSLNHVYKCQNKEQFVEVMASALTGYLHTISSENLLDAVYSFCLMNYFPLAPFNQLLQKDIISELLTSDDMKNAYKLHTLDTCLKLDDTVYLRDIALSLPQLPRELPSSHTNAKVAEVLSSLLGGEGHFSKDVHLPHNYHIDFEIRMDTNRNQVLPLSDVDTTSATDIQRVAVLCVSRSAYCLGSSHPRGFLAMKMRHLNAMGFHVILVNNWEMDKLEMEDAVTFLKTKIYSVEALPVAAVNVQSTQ

Compound: Cc1cc(ccc1-c1ccccc1)C(=O)N1CCCN(CC1)C(=O)CCl [compound 10]
Assay: probe-labelled cysteine peptide fold change vs DMSO (competition) (log2 fold change); higher = less target engagement (more negative = stronger competition)
Conditions: THP-1, incubation time: 4 h
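Also: competitive profiling in live THP-1 cells: cysteine peptides tagged with an iodoacetamide desthiobiotin (IA-DTB) probe, intensity after compound treatment relative to DMSO-treated cells.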

Row | Target | probe-labelled cysteine peptide fold change (10 µM) | probe-labelled cysteine peptide fold change (50 µM)
1 | FAM136A_Q96C01_82_CTMHCNDK (UniProt Q96C01) | 0.123 | 0.101
2 | FASN_P49327_1186_LLSAACR (UniProt P49327) | 0.0684 | -0.0954
3 | FECH_P22830_196_AIAFTQYPQYSCSTTGSSLNAIYR (UniProt P22830) | -0.006 | 0.266
4 | FBXL19_Q6PCT2_637_ETLVHLNLAGCHR (UniProt Q6PCT2) | 0.11 | -0.516
5 | FASTKD1_Q53R41_673_SVCLECPEFQIPWFHDR (UniProt Q53R41) | -0.00433 | -0.256
6 | FHL1_Q13642-1_255_CSVNLANKR (UniProt Q13642) | -0.0452 | -0.318
7 | FCGR2A_P12318_62_LEPPWINVLQEDSVTLTCQGAR (UniProt P12318) | 0.0375 | 0.17
8 | FAM208A_Q9UK61_149_ACLVHNELLEK (UniProt Q9UK61) | -0.2 | -1.18
9 | FASN_P49327_1448+1459_AINCATSGVVGLVNCLR (UniProt P49327) | 0.14 | -0.205
10 | FBXL18_Q96ME1_613_LEQPYFSANAQFFQALSQCPSLQR (UniProt Q96ME1) | -0.134 | 0.227
11 | FBL_P22087_99_NVMVEPHRHEGVFICR (UniProt P22087) | -0.0461 | -0.116
12 | FASTKD2_Q9NYY8_645_SAYCLGSSHPR (UniProt Q9NYY8) | 0.0566 | -0.0395
13 | FANCI_Q9NVI1_1085_TAAPTVCLLVLSQAEK (UniProt Q9NVI1) | 0.0136 | 0.198
14 | FER_P16591_785_MSAPQHCPEDISK (UniProt P16591) | -0.0781 | -0.196
